PubChem BioAssay AID2517 (National Center for Advancing Translational Sciences (NCATS), 2010)
Among all 350,000 compounds or so, about 1,200 (0.34%) were called active. The inconclusive results got no clear call from the source; some entries with a clear call stand among them for comparison. The call rests on the fitted dose curve; in most records, active means well fitted inhibition curve with a large enough effect; inconclusive means small, poorly fitted or top-dose-only effect; inactive means no such curve, though single readings can be large or run the other way. Potencies of inconclusive entries are doubtful fits and often do not repeat.

Amino acid sequences for entries named in this document (tags omitted).
UniProt P27695, whole entry, looked up: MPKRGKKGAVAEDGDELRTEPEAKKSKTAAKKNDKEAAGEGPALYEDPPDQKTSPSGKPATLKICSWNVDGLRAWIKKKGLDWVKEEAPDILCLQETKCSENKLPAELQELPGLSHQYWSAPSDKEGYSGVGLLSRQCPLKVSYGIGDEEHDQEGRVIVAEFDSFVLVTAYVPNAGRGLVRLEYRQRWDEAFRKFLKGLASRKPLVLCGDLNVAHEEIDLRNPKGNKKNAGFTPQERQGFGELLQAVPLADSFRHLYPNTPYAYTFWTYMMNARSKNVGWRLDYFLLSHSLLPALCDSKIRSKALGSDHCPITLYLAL

Biological target: DNA repair nuclease/redox regulator APEX1 (Homo sapiens) (UniProt P27695)
Experiment: qHTS Assay for Inhibitors of the Human Apurinic/apyrimidinic Endonuclease 1 (APE1); further: nearly all actives have a fitted effect of over 55% in size;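 on activity change, negative = inhibition: plate controls were vehicle for no effect and reference inhibitor for full effect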
Conditions: recombinant APE1, TAMRA/BHQ-2 abasic DNA cleavage fluorescence; activity change, negative = inhibition: at 65.8 µM (top of the series)
In short: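 Step 1: APE1 (0.75 nM) with compound, 15 min RT. Step 2: add 50 nM fluorophore/quencher THF duplex. Step 3: three fluorescence reads 60 s apart (525/598 nm); read 3 minus read 1 = reaction progress.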
Potency means the concentration at half of the fitted maximal effect.

SMILES | Potency | activity change, negative = inhibition
S=C(Nc1ccccc1Cl)N(Cc1ccccc1)Cc1ccccn1 | inconclusive: 31.6 µM [inhibitor, single point] | –
Cc1nc2c(-c3ccc(F)cc3)c(C)nn2c(C)c1CCC(=O)N1CCN(c2ccccn2)CC1 | inconclusive: 8.91 µM [inhibitor, single point] | –
CC(C)C(=O)Nc1ncc(Cc2ccc(Cl)cc2)s1 | – | inactive: 4.06%
NC(=O)[C@H]1CC2(CC(c3cccc(NC(=O)CC(c4ccccc4)c4ccccc4)c3)=NO2)CN1C(=O)CC(c1ccccc1)c1ccccc1 (some centres undefined) | – | inactive: -4.17%
CC1=Nc2ccccc2/C1=C\c1nc(-c2ccccc2)oc1O | – | inactive: -4.83%
CC(=O)Nc1ccc(S(=O)(=O)N2CCc3nc(COc4ccccc4)c4c(c3C2)CO[C@@H](C)C4)cc1 | – | inactive: -2.83% [at 12.4 µM]
Cc1cc(C)nc(N2N=C(CSc3ccc(Cl)cc3)CC2=O)n1 | active: 2.82 µM | –
O=C(CSc1nc2ncccc2[nH]1)NCc1ccccc1 | inconclusive: 7.08 µM [inhibitor, single point] | –
Cc1cccc(N2CCC(N3CCN(C4CCCCC4)C(CCO)C3)CC2)c1C (centres undefined) | active: 22.4 µM | –
CC(=O)Nc1ccc(S(=O)(=O)n2nc(-c3ccc(C)cc3)nc2N)cc1 | inconclusive: 35.5 µM [inhibitor, single point] | –
COc1ccc(N2Cc3cccc(C(=O)N4CCOCC4)c3C2=O)cc1 | – | inactive: -5.05%
C[C@H]1NC(=O)[C@@]2(C)[C@H](c3ccccc3)[C@H]3COc4ccccc4[C@@H]3N2C1=O | inconclusive: 26.7 µM [inhibitor, partial curve] | –
O=C(CCSCCC(=O)NCc1ccco1)NCc1ccco1 | inconclusive: 17.8 µM [inhibitor, single point] | –
Cc1occc1C(=O)Nc1c(F)c(F)c(F)c(F)c1F | inconclusive: 3.55 µM [inhibitor, single point] | –
Cc1[nH]c2ccccc2c1/C=N/NS(=O)(=O)c1ccccc1 | inconclusive: 44.7 µM [inhibitor, single point] | –
CC1CCCC(C)N1C(=O)C1CCCCC1 (centres undefined) | – | inactive: -4.22%
CCOC(=O)C1(Cc2ccccc2C)CCCN(C(=O)CCn2nccc2C)C1 (centres undefined) | inconclusive: 1.78 µM [inhibitor, partial curve] | –
Cc1cccc(NC(=O)c2oc3ccc(S(=O)(=O)N4CCOCC4)cc3c2C)c1C | inconclusive: 1.58 µM [inhibitor, full curve, poor fit] | –
COc1ccc(Cl)cc1Nc1nc(-c2sc(NC(=O)C(C)(C)C)nc2C)cs1 | inconclusive: 39.8 µM [inhibitor, partial curve] | –

Arranged by length of the SMILES (smallest number first): some entries from above
SMILES | Potency | activity change, negative = inhibition
CC(C)C(=O)Nc1ncc(Cc2ccc(Cl)cc2)s1 | – | inactive: 4.06%
Cc1cc(C)nc(N2N=C(CSc3ccc(Cl)cc3)CC2=O)n1 | active: 2.82 µM | –
Cc1cccc(NC(=O)c2oc3ccc(S(=O)(=O)N4CCOCC4)cc3c2C)c1C | inconclusive: 1.58 µM [inhibitor, full curve, poor fit] | –
